Test results taken from US8076285B2 (Aicuris GmbH & Co. KG, priority 2006, dated 2011).

Experiment: general procedure: Fmoc solid-phase peptide synthesis; 2-chlorotrityl chloride resin (Iris Biotech), 0.85 mmol/g; TBTU/DIEA
[1] = late stage modification step, trifluoroacetate
[2] = cyclisation step, trifluoroacetate
[3] = coupling step, trifluoroacetate

[(3-R)-3-Hydroxy-L-leucyl]-L-leucyl-D-arginyl-L-isoleucyl-L-allothreonyl-glycyl-L-threonyl-L-serine bistrifluoroacetate
step yield [1]: 94% of theory

[(3R)-N^2-(Benzyloxycarbonyl)-3-amino-L-phenylalanyl]-[(3R)-3-hydroxy-L-leucyl]-L-isoleucyl-D-arginyl-L-isoleucyl-L-allothreonyl-glycyl-L-seryl-L-serine C^1.9-N^3.1-lactam trifluoroacetate
cyclisation yield (cyclisation step, from 375A, trifluoroacetate): 62% of theory
final purity (method not given) [2]: 95% pure

[(3R)-N^2-(Benzyloxycarbonyl)-3-amino-L-phenylalanyl]-[(3R)-3-hydroxy-L-leucyl]-L-leucyl-D-arginyl-L-isoleucyl-L-allothreonyl-glycyl-[(3S)-3-hydroxy-L-asparaginyl]-L-serine C^1.9-N^3.1-lactam trifluoroacetate
cyclisation yield [2]: 73% of theory

[(3R)-3-Hydroxy-L-leucyl]-L-leucyl-D-arginyl-L-isoleucyl-L-seryl-glycyl-[(3S)-3-hydroxy-L-asparaginyl]-L-serinate bistrifluoroacetate
step yield [1]: 90% of theory

[(3R)-3-Amino-L-phenylalanyl]-[(3R)-3-hydroxy-L-leucyl]-L-leucyl-D-arginyl-L-leucyl-L-allothreonyl-glycyl-L-seryl-L-serine C^1.9-N^3.1-lactam bistrifluoroacetate
step yield (late stage modification step, of theory from 389A, trifluoroacetate): 89% of theory
purity (crude or final not stated) [1]: 85% pure

[(3R)-N^2-(tert-Butoxycarbonyl)-3-hydroxy-L-leucyl]-L-leucyl-D-arginyl-L-isoleucyl-L-allothreonyl-D-alanyl-[(3S)-3-hydroxy-L-asparaginyl]-L-serinate trifluoroacetate
step yield [3]: 84% of theory

[N^2-(Benzyloxycarbonyl)-3-tert-butyl-D-alanyl]-[3-tert-butyl-L-alanyl]-{(3R)-3-amino-L-phenylalanyl}-{(3R)-3-hydroxy-L-leucyl}-L-leucyl-D-arginyl-L-isoleucyl-L-allothreonyl-glycyl-L-asparaginyl-L-serine C^1.11-N^3.3-lactam trifluoroacetate
cyclisation yield [2]: 80.0% of theory

[(3R)-3-Amino-L-phenylalanyl]-[(3R)-3-hydroxy-L-leucyl]-L-leucyl-D-arginyl-L-isoleucyl-L-allothreonyl-glycyl-glycyl-L-serine C^1.9-N^3.1-lactam bistrifluoroacetate
step yield (late stage modification step, of theory from 404A, trifluoroacetate): 97% of theory

[3-tert-Butyl-D-alanyl]-[3-tert-butyl-L-alanyl]-[(3R)-3-amino-L-phenylalanyl]-[(3R)-3-hydroxy-L-leucyl]-L-leucyl-D-arginyl-L-isoleucyl-L-allothreonyl-glycyl-[(2S)-2,4-diaminobutyryl]-L-serine C^1.11-N^3.3-lactam
step yield (late stage modification step, from compound 444A, trifluoroacetate): 10% of theory

[(3R)-N^2-(Benzyloxycarbonyl)-3-{(tert-butoxycarbonyl)amino}-3-(pyridin-3-yl)-L-alanyl]-[(3R)-3-hydroxy-L-leucyl]-L-leucyl-D-arginyl-L-isoleucyl-L-allothreonyl-glycyl-[(3R)-3-hydroxy-L-asparaginyl]-L-serine bistrifluoroacetate
step yield [3]: 49% of theory

Benzyl [(3R)-N^2-(tert-butoxycarbonyl)-3-hydroxy-L-leucyl]-L-leucyl-D-arginyl-L-isoleucyl-L-allothreonyl-glycyl-L-seryl-L-serinate trifluoroacetate
step yield [3]: 34% of theory

{(3R)-N^2-[(9H-Fluoren-9-ylmethoxy)carbonyl]-3-amino-L-phenylalanyl}-[(3R)-3-hydroxy-L-leucyl]-L-leucyl-D-arginyl-L-isoleucyl-L-allothreonyl-glycyl-[(2S)-2-amino-4-benzyloxycarbonylaminobutyryl]-L-serine C^1.9-N^3.1-lactam trifluoroacetate
cyclisation yield (cyclisation step, from 369A, trifluoroacetate): 66% of theory
final purity (method not given) [2]: 58% pure

[(3R)-3-Amino-L-phenylalanyl]-[(3R)-3-hydroxy-L-leucyl]-L-leucyl-D-arginyl-L-isoleucyl-L-allothreonyl-glycyl-L-threonyl-L-serine C^1.9-N^3.3-lactam bishydrochloride
step yield [1]: 99% of theory

{(3R)-N^2-(tert-Butoxycarbonyl)-3-hydroxy-L-leucyl}-L-leucyl-D-arginyl-L-isoleucyl-{O^3-(tert-butyl)-L-allothreonyl}-glycyl-{N^4-trityl-L-asparaginyl}-[O^3-(tert-butyl)-L-serine]
step yield [1]: 61.2% of theory

[(3R)-3-Amino-L-leucyl]-[(3R)-3-hydroxy-L-leucyl]-L-leucyl-D-arginyl-L-isoleucyl-L-allothreonyl-glycyl-[(3R)-3-hydroxy-L-asparaginyl]-L-serine C^1.9-N^3.1-lactam bishydrochloride
step yield (late stage modification step, of theory from 394A, trifluoroacetate): 96% of theory

[(3R)3-Hydroxy-L-leucyl]-L-leucyl-D-arginyl-L-isoleucyl-L-allothreonyl-glycyl-L-phenyl alanyl-L-serine bistrifluoroacetate
step yield [1]: 99% of theory

[3-tert-Butyl-D-alanyl]-[3-tert-butyl-L-alanyl]-[(3R)-3-amino-L-phenylalanyl]-[(3R)-3-hydroxy-L-leucyl]-L-leucyl-D-arginyl-L-isoleucyl-L-allothreonyl-glycyl-L-asparaginyl-L-serine C^1.11-N^3.3-lactam bistrifluoroacetate
step yield (late stage modification step, trifluoroacetate, run 1): 96.6% of theory
step yield (late stage modification step, trifluoroacetate, run 2): 93.5% of theory

[N^2-(Benzyloxycarbonyl)-D-leucyl]-L-leucyl-[(3R)-N^3-(tert-butoxycarbonyl)-3-amino-L-phenylalanyl]-{(3R)-3-hydroxy-L-leucyl}-L-leucyl-D-arginyl-L-isoleucyl-L-threonyl-glycyl-L-asparaginyl-L-serine trifluoroacetate
step yield [3]: 72.5% of theory

[3-tert-Butyl-D-alanyl]-[3-tert-butyl-L-alanyl]-[(3R)-3-amino-L-phenylalanyl]-[(3R)-3-hydroxy-L-leucyl]-L-leucyl-D-arginyl-L-isoleucyl-L-allothreonyl-glycyl-[(3S)-3-hydroxy-L-asparaginyl]-L-alanine C^1.11-N^3.3-lactam bistrifluoroacetate
step yield [1]: 36% of theory

[(3R)-N^2-(Benzyloxycarbonyl)-3-amino-L-phenylalanyl]-[(3R)-3-hydroxy-L-leucyl]-L-leucyl-D-arginyl-L-phenylalanlyl-L-allothreonyl-glycyl-L-seryl-L-serine C^1.9-N^3.1-lactam trifluoroacetate
cyclisation yield (cyclisation step, from 368A, trifluoroacetate): 76% of theory

[(3R)-N^2-(Benzyloxycarbonyl)-3-amino-L-phenylalanyl]-[(3R)-3-hydroxy-L-leucyl]-L-leucyl-D-arginyl-L-isoleucyl-L-allothreonyl-glycyl-L-threonyl-L-serine C^1.9-N^3.1-lactam trifluoroacetate
cyclisation yield [2]: 65% of theory

[(3R)-N^2-(Benzyloxycarbonyl)-3-amino-L-phenylalanyl]-[(3R)-3-hydroxy-L-leucyl]-L-leucyl-D-arginyl-[3-trimethylsilyl-L-alanlyl]-L-allothreonyl-glycyl-L-seryl-L-serine C^1.9-N^3.1-lactam trifluoroacetate
cyclisation yield (cyclisation step, from 366A, trifluoroacetate): 51% of theory
final purity (method not given) [2]: 42% pure

N^2.1-(tert-Butoxycarbonyl)-[3-tert-butyl-D-alanyl]-[3-tert-butyl-L-alanyl]-[(3R)-3-amino-4-(dimethylaminophenyl)-L-alanyl]-[(3R)-3-hydroxy-L-leucyl]-L-leucyl-D-arginyl-L-isoleucyl-L-allothreonyl-glycyl-[(3S)-3-hydroxy-L-asparaginyl]-L-serine C^1.11-N^3.3-lactam bishydrochloride
final purity (method not given) [3]: about 66% pure
step yield [3]: 65% of theory

[N^2-(tert.-Butoxycarbonyl)-3-tert-butyl-D-alanyl]-[3-tert-butyl-L-alanyl]-[(3R)-3-amino-L-phenylalanyl]-[(3R)-3-hydroxy-L-leucyl]-L-leucyl-D-arginyl-L-isoleucyl-L-allothreonyl-glycyl-[(3S)-3-hydroxy-L-asparaginyl]-L-alanine C^1.11-N^3.3-lactam hydrochloride
step yield (coupling step, hydrochloride): 85% of theory

[(3R)-N^2-(Benzyloxycarbonyl)-3-{(tert-butoxycarbonyl)amino}-L-phenylalanyl]-[(3R)-3-hydroxy-L-leucyl]-L-leucyl-D-arginyl-L-isoleucyl-L-allothreonyl-D-seryl-L-seryl-L-serine trifluoroacetate
step yield [3]: 29% of theory

[3-tert-Butyl-D-alanyl]-[(3R)-3-amino-L-phenylalanyl]-[(3R)-3-hydroxy-L-leucyl]-L-leucyl-D-arginyl-L-isoleucyl-L-allothreonyl-glycyl-L-allothreonyl-L-serine C^1.11-N^3.3-lactam bistrifluoroacetate
step yield [1]: 57% of theory

[(3R)-3-Hydroxy-L-leucyl]-L-leucyl-(N^6-benzyloxycarbonyl-D-lysyl)-L-isoleucyl-L-allothreonyl-glycyl-L-seryl-L-serine bistrifluoroacetate
purity (crude or final not stated) [1]: 58% pure

[(3R)-3-Hydroxy-L-leucyl]-L-norleucyl-D-arginyl-L-isoleucyl-L-allothreonyl-glycyl-L-alanyl-L-serine bistrifluoroacetate
final purity (method not given) [1]: 60% pure

N^2.1-(tert-Butoxycarbonyl)-[3-trimethylsilyl-D-alanyl]-[3-tert-butyl-L-alanyl]-[(3R)-3-amino-4-(dimethylaminophenyl)-L-alanyl]-[(3R)-3-hydroxy-L-leucyl]-L-leucyl-D-arginyl-L-iso-leucyl-L-allothreonyl-glycyl-[(3S)-3-hydroxy-L-asparaginyl]-L-serine C^1.11-N^3.3-lactam bishydrochloride
step yield [3]: 96% of theory
